The values below come from paper PMC12209930, “A TATA-box-binding protein binds single-stranded DNA in two modes: To poly(G) tracts and to flexible DNA regions”.

The subject of one series is GST. The experiment in a line: EMSA. Conditions: GST alone; 10 mM Tris-HCl pH 8.0, 0.15 M NaCl, 0.5 mM TCEP, 5% glycerol, 1 ug/ul BSA, 15 ng/ul salmon sperm DNA, 30 min on ice; probe 0.1 pmol/ul, competitor 200-fold excess; recombinant protein; label: 5'Cy5 (probe), unlabeled as competitor; single-stranded DNA. (In general: In EMSA bound probe runs differently from free probe, usually more slowly.)

For series [1], the target named is T1, gTBP (GST-gTBP) (Giardia intestinalis WB C6 (ATCC 50803)) (UniProt E2RU70).
T1 sequence (looked up): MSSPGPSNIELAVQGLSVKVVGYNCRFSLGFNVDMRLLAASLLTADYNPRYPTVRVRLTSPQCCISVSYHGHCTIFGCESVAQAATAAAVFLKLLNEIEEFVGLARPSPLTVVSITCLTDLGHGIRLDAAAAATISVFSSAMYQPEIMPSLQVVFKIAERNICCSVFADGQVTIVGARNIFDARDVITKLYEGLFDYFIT
The experiment in a line: EMSA. Conditions: titration of complementary strand, annealed; 10 mM Tris-HCl pH 8.0, 0.15 M NaCl, 0.5 mM TCEP, 5% glycerol, 1 ug/ul BSA, 15 ng/ul salmon sperm DNA, 30 min on …; probe 0.1 pmol/ul, competitor 200-fold excess; recombinant protein; residues 1-200; protein details: N-terminal GST; label: 5'Cy5 on one strand.

Series [2] concerns the target T1, gTBP (GST-gTBP) (Giardia intestinalis WB C6 (ATCC 50803)). The series is described as follows: competition with a labelled probe. Conditions: 10 mM Tris-HCl pH 8.0, 0.15 M NaCl, 0.5 mM TCEP, 5% glycerol, 1 ug/ul BSA, 15 ng/ul salmon sperm DNA, 30 min on ice, probe 0.1 pmol/ul, competitor 200-fold excess, recombinant protein, residues 1-200, protein details: N-terminal GST, single-stranded DNA.

For some assays here: A negative result means that nothing was seen under these conditions. For some assays here: Tags and fusion partners may be left off the protein sequences shown. For some assays here: Weaker means in comparison with the reference protein, sequence or condition of that experiment. For some assays here: Construct, isoform or probe ends are uncertain for at least one entry.

“CATTTTTATTTGCCCCTTCCCGCGTCTTCTTTTTTAGCCCAAATCTGCGCCCTAC [H4-b]”: the binding result in the series with GST was “no binding”. Turning to “GTAGGGCGCAGATTTGGGCTAAAAAAGAAGACGCGGGAAGGGGCAAATAAAAATG (double strand) [H4 duplex]”, in series [1], the binding result is “binds more weakly”. With “TAGAAGTGCACAGGGGCGCAGATTTCGGCTGC [H2B-a Left (L)]”, in series [2] (vs H2B-a probe), the binding result is “binds more weakly”. In the case of “TAGAAGTGCACAGGGGCGCAGATTTCGGCTGCGGAAGGGGGGAAAAAGCGGGCGGGAAAGAAAT (double strand) [H2B duplex]”, the binding result in series [1] was “binds more weakly”. For the sequence “TTTTTTTTTTTTTTTTTTTTTTTTTTTTTT [polyT(30)]”, the binding result in series [2] (vs H4-a and H2B-a probes) is on record as “no binding”.
